No constants are given. Whether binding was seen depends on the method and setting. Binding seen in cells or lysates may run through a third protein. Some entries that bind do so weakly or less than the wild type. Where a sequence is shown, tags or fusion partners need not be part of it.
T1: recombinant N-terminally 7×His tagged biotinylated Oxr1p (bio-Oxr1p) (yeast) (UniProt Q08952)
T1 sequence (chain, biotin on the Avi tag (incomplete biotinylation)): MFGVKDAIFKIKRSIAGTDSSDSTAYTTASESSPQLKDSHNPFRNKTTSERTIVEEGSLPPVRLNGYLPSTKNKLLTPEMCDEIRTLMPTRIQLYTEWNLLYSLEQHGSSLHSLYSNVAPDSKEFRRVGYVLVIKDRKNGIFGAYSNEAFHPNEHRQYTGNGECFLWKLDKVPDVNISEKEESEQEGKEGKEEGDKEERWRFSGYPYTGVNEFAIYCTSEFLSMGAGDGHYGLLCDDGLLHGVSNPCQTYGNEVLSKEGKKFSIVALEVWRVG

B1: V1 subunit C (Vma5p), endogenous, from vacuoles (protein, UniProt P31412 1-392)
chain: MATALYTANDFILISLPQNAQPVTAPGSKTDSWFNETLIGGRAFVSDFKIPEFKIGSLDTLIVESEELSKVDNQIGASIGKIIEILQGLNETSTNAYRTLPINNMPVPEYLENFQWQTRKFKLDKSIKDLITLISNESSQLDADVRATYANYNSAKTNLAAAERKKTGDLSVRSLHDIVKPEDFVLNSEHLTTVLVAVPKSLKSDFEKSYETLSKNVVPASASVIAEDAEYVLFNVHLFKKNVQEFTTAAREKKFIPREFNYSEELIDQLKKEHDSAASLEQSLRVQLVRLAKTAYVDVFINWFHIKALRVYVESVLRYGLPPHFNIKIIAVPPKNLSKCKSELIDAFGFLGGNAFMKDKKGKINKQDTSLHQYASLVDTEYEPFVMYIINL
B2: V1 subunit H (Vma13p), endogenous, from vacuoles (protein, UniProt P41807 1-478)
chain: MGATKILMDSTHFNEIRSIIRSRSVAWDALARSEELSEIDASTAKALESILVKKNIGDGLSSSNNAHSGFKVNGKTLIPLIHLLSTSDNEDCKKSVQNLIAELLSSDKYGDDTVKFFQEDPKQLEQLFDVSLKGDFQTVLISGFNVVSLLVQNGLHNVKLVEKLLKNNNLINILQNIEQMDTCYVCIRLLQELAVIPEYRDVIWLHEKKFMPTLFKILQRATDSQLATRIVATNSNHLGIQLQYHSLLLIWLLTFNPVFANELVQKYLSDFLDLLKLVKITIKEKVSRLCISIILQCCSTRVKQHKKVIKQLLLLGNALPTVQSLSERKYSDEELRQDISNLKEILENEYQELTSFDEYVAELDSKLLCWSPPHVDNGFWSDNIDEFKKDNYKIFRQLIELLQAKVRNGDVNAKQEKIIIQVALNDITHVVELLPESIDVLDKTGGKADIMELLNHSDSRVKYEALKATQAIIGYTFK

Key:
[1] = target: T1, recombinant N-terminally 7×His tagged biotinylated Oxr1p (bio-Oxr1p) (yeast); assay: pull-down; purified vacuoles incubated with bio-Oxr1p 30 min at room temperature, ultracentrifuged; supernatant incubated with buffer or 4 mM MgAMP-PNP 30 min at 4 °C; bio-Oxr1p captured on streptavidin beads 60 min at 4 °C; western blot; only the target purified
[2] = target: T1, recombinant N-terminally 7×His tagged biotinylated Oxr1p (bio-Oxr1p) (yeast); assay: pull-down; as a5, but supernatant incubated with 4 mM MgATP 30 min at 4 °C before capture of bio-Oxr1p on streptavidin beads; only the target purified

| Binder | binding [1] | binding [2] |
| --- | --- | --- |
| B1 | binds | no binding (condition: with 4 mM MgATP) |
| B2 | binds | no binding (condition: with 4 mM MgATP) |
